# Experimental data reported in the supplement of paper PMC4604168 (melanoma cell lines).
# The list shows a part of the results. Repeats are few or missing, and single values can be far off.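 Cells were imaged in 1,536-well plates, and nuclei stained with an antibody against cleaved PARP were counted against all DNA-stained nuclei to give the apoptosis fraction. Screening doses were chosen to leave most cells alive, and resting and induced cleaved-PARP levels differ strongly between cell lines.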
# Key:
# Assay in all cases: cleaved PARP positive nuclei fraction relative to DMSO control; melanoma cells; higher = more apoptosis
# Conditions in all cases: library dose: low library concentration; 72 h
# MZ2-MEL = system: MZ2-MEL
# MeWo = system: MeWo
# RPMI7951 = system: RPMI7951
# RVH-421 = system: RVH-421
# SkMel28 = system: SkMel28
# SkMel30 = system: SkMel30
# SkMel5 = system: SkMel5
# UACC257 = system: UACC257
# UACC62 = system: UACC62
# WM115 = system: WM115
# WM1716 = system: WM1716
# WM1745 = system: WM1745
# WM3526 = system: WM3526
# WM3619 = system: WM3619
# WM451Lu = system: WM451Lu
Compound,cleaved PARP positive nuclei fraction (MZ2-MEL) [%],cleaved PARP positive nuclei fraction (MeWo) [%],cleaved PARP positive nuclei fraction (RPMI7951) [%],cleaved PARP positive nuclei fraction (RVH-421) [%],cleaved PARP positive nuclei fraction (SkMel28) [%],cleaved PARP positive nuclei fraction (SkMel30) [%],cleaved PARP positive nuclei fraction (SkMel5) [%],cleaved PARP positive nuclei fraction (UACC257) [%],cleaved PARP positive nuclei fraction (UACC62) [%],cleaved PARP positive nuclei fraction (WM115) [%],cleaved PARP positive nuclei fraction (WM1716) [%],cleaved PARP positive nuclei fraction (WM1745) [%],cleaved PARP positive nuclei fraction (WM3526) [%],cleaved PARP positive nuclei fraction (WM3619) [%],cleaved PARP positive nuclei fraction (WM451Lu) [%]
"OCCn1cc(-c2cnc3nnn(Cc4ccc5ncccc5c4)c3n2)cn1 + O=C(Nc1ccccc1)c1cc([N+](=O)[O-])ccc1Cl [GW9662] (first compound 1 µM, partner dose 2 µM)",89.1,115,73.9,108,132,44.3,362,44.6,140,444,104,83.9,526,49.8,77.1
"Cn1cncc1[C@@](N)(c1ccc(Cl)cc1)c1ccc2c(c1)c(-c1cccc(Cl)c1)cc(=O)n2C [tipifarnib] + COc1ccc(COc2ccc(Cc3cnc(N)nc3N)cc2OC)cc1 [GW2580] (first compound 0.01 µM, partner dose 1 µM)",121,75.5,95.1,141,89.7,19.1,185,120,50.8,198,87.9,113,148,89.7,25
"C[C@]1(c2nc3c(C(N)=O)cccc3[nH]2)CCCN1 [Veliparib] + O=C(O)C(=O)Nc1sc2c(c1C(=O)O)CCNC2 [TCS401] (first compound 1.4 µM, partner dose 1.66667 µM)",75.4,93.7,67.9,19.5,74.7,66.6,43.9,118,170,162,99.6,122,65.6,94.1,49.6
"C[C@]1(c2nc3c(C(N)=O)cccc3[nH]2)CCCN1 [Veliparib] + COc1cc2ncnc(Nc3ccc(Oc4ccccc4)cc3)c2cc1OC [SrcI1] (first compound 1.4 µM, partner dose 2 µM)",101,273,69.4,105,197,37.3,38,195,693,268,172,139,88.5,73.5,106
"C#Cc1cccc(Nc2ncnc3cc(OCCOC)c(OCCOC)cc23)c1 [erlotinib] + COc1ccc(COc2ccc(Cc3cnc(N)nc3N)cc2OC)cc1 [GW2580] (first compound 0.8 µM, partner dose 1 µM)",187,205,79.2,78.7,210,47,55,148,56.9,221,27.6,127,67,88.3,51.2
"Cn1c(Nc2ccc(C(F)(F)F)cc2)nc2cc(Oc3ccnc(-c4ncc(C(F)(F)F)[nH]4)c3)ccc21 + COc1ccc(COc2ccc(Cc3cnc(N)nc3N)cc2OC)cc1 [GW2580] (first compound 0.08 µM, partner dose 1 µM)",44.5,50.4,55,126,134,40.9,136,496,131,204,76.8,123,373,124,70.1
"Cn1cncc1[C@@](N)(c1ccc(Cl)cc1)c1ccc2c(c1)c(-c1cccc(Cl)c1)cc(=O)n2C [tipifarnib] + O=C1NC(=O)/C(=C/c2ccc(-c3ccc(F)cc3O)o2)S1 [AS252424] (first compound 0.01 µM, partner dose 1 µM)",38.7,30.3,97.9,66.9,94.4,279,80.7,280,125,125,140,88.3,81.8,275,57.2
"Cc1ccc(NC(=O)c2cccc(N(C)C)c2)cc1NC(=O)c1ccc(O)cc1 + O=C1NC(=O)/C(=C/c2ccc(-c3ccc(F)cc3O)o2)S1 [AS252424] (first compound 2 µM, partner dose 1 µM)",74.6,30.3,86.1,54.7,93.3,329,28.5,117,268,144,110,99.3,78.9,65.4,514
"C#Cc1cccc(Nc2ncnc3cc(OCCOC)c(OCCOC)cc23)c1 [erlotinib] + O=c1cc(-c2cccc3c2Sc2ccccc2S3)oc(N2CCOCC2)c1 [KU55933] (first compound 0.8 µM, partner dose 1 µM)",234,115,44.7,55,71.2,49,60.2,147,77.9,58.8,65.6,121,176,74.7,142
"Cc1cc(N2CCOCC2)cc2[nH]c(-c3c(NC[C@@H](O)c4cccc(Cl)c4)cc[nH]c3=O)nc12 + CCc1ccc(CCOc2ccc(CC3SC(=O)NC3=O)cc2)nc1 [pioglitazone] (first compound 0.2 µM, partner dose 2 µM)",94.4,37.7,67.8,42.5,156,45.3,222,94.7,130,47.8,139,129,58.3,97.8,65.8
"COc1cc(Nc2ncc(F)c(Nc3ccc4c(n3)NC(=O)C(C)(C)O4)n2)cc(OC)c1OC [Tamatinib] + Oc1cc(-c2nc(-c3ccccc3)[nH]c2-c2ccncc2)ccc1Cl [L779450] (first compound 0.4 µM, partner dose 0.2 µM)",163,113,252,68.7,247,32.1,62.2,181,113,283,175,208,116,79.4,63.9
"C[C@@H]1CCN(C(=O)CC#N)C[C@@H]1N(C)c1ncnc2[nH]ccc12 + Oc1nc(-c2ccc(C(F)(F)F)cc2)nc2c1CSCC2 [XAV939] (first compound 1 µM, partner dose 2 µM)",104,119,81.2,98,212,73.2,30.1,79.6,61,91,262,113,74.2,82.1,109
"NC(=O)Nc1cc(-c2cccc(F)c2)sc1C(=O)N[C@H]1CCCNC1 + CCc1ccc(CCOc2ccc(CC3SC(=O)NC3=O)cc2)nc1 [pioglitazone] (first compound 0.02 µM, partner dose 2 µM)",66.8,111,81.8,44.4,119,51.6,60,49.7,111,239,95.7,97,76.7,268,61.7
"Cn1nnc2c(C(N)=O)ncn2c1=O [temozolomide] + O=C(Nc1ccccc1)c1cc([N+](=O)[O-])ccc1Cl [GW9662] (first compound 2 µM, partner dose 2 µM)",92.6,111,79.6,91.1,35.5,55.6,121,173,194,67.3,60.7,130,82.6,72.1,146
"C=CCn1c(=O)c2cnc(Nc3ccc(N4CCN(C)CC4)cc3)nc2n1-c1cccc(C(C)(C)O)n1 + CC(C)CCN1c2nc(Nc3cc(F)c(O)c(F)c3)ncc2N(C)C(=O)C1C [BID1870] (first compound 0.02 µM, partner dose 0.2 µM)",150,234,40.4,76.2,256,40.6,229,83.1,397,76.2,168,122,85.9,101,68.8
"Cc1nc(Nc2ncc(C(=O)Nc3c(C)cccc3Cl)s2)cc(N2CCN(CCO)CC2)n1 [dasatanib] + COc1ccc(-c2ccc3c(N4CCOCC4)nc(N4C[C@@H](C)O[C@@H](C)C4)nc3n2)cc1CO [KU0063794] (first compound 0.004 µM, partner dose 0.02 µM)",124,231,66.5,113,148,30.2,57.4,217,57.9,475,244,149,75.9,116,74.6
"C#Cc1cccc(Nc2ncnc3cc(OCCOC)c(OCCOC)cc23)c1 [erlotinib] + O=C(Nc1ccccc1)c1cc([N+](=O)[O-])ccc1Cl [GW9662] (first compound 0.8 µM, partner dose 2 µM)",175,166,77.9,26.4,188,119,67.9,137,127,139,126,139,108,82.2,74.4
"C[C@]1(c2nc3c(C(N)=O)cccc3[nH]2)CCCN1 [Veliparib] + N#Cc1c(O)c2c(-c3ccc(-c4ccccc4O)cc3)csc2[nH]c1=O [A769662] (first compound 1.4 µM, partner dose 2 µM)",120,28.3,55.8,29,91.3,67.6,115,69.8,89.5,335,91.2,106,117,62.5,26.6
"OCCn1cc(-c2cnc3nnn(Cc4ccc5ncccc5c4)c3n2)cn1 + COC(=O)c1sccc1S(=O)(=O)Nc1ccc(Nc2ccccc2)cc1OC [GSK0660] (first compound 1 µM, partner dose 1 µM)",124,222,141,98.2,93.7,82.4,34.5,61.8,292,115,45.6,99,70.5,78.6,60.9
"C=CCn1c(=O)c2cnc(Nc3ccc(N4CCN(C)CC4)cc3)nc2n1-c1cccc(C(C)(C)O)n1 + O=c1cc(-c2cccc3c2Sc2ccccc2S3)oc(N2CCOCC2)c1 [KU55933] (first compound 0.02 µM, partner dose 1 µM)",173,54.9,165,102,36.3,536,139,89.5,82.2,75.1,64.9,136,161,224,120

# Full records as entered above. Values in the order: cleaved PARP positive nuclei fraction (MZ2-MEL) [%]	cleaved PARP positive nuclei fraction (MeWo) [%]	cleaved PARP positive nuclei fraction (RPMI7951) [%]	cleaved PARP positive nuclei fraction (RVH-421) [%]	cleaved PARP positive nuclei fraction (SkMel28) [%]	cleaved PARP positive nuclei fraction (SkMel30) [%]	cleaved PARP positive nuclei fraction (SkMel5) [%]	cleaved PARP positive nuclei fraction (UACC257) [%]	cleaved PARP positive nuclei fraction (UACC62) [%]	cleaved PARP positive nuclei fraction (WM115) [%]	cleaved PARP positive nuclei fraction (WM1716) [%]	cleaved PARP positive nuclei fraction (WM1745) [%]	cleaved PARP positive nuclei fraction (WM3526) [%]	cleaved PARP positive nuclei fraction (WM3619) [%]	cleaved PARP positive nuclei fraction (WM451Lu) [%]
# C#Cc1cccc(Nc2ncnc3cc(OCCOC)c(OCCOC)cc23)c1 [erlotinib] + O=C(Nc1ccccc1)c1cc([N+](=O)[O-])ccc1Cl [GW9662] (first compound 0.8 µM, partner dose 2 µM) in the list: 175	166	77.9	26.4	188	119	67.9	137	127	139	126	139	108	82.2	74.4
# C=CCn1c(=O)c2cnc(Nc3ccc(N4CCN(C)CC4)cc3)nc2n1-c1cccc(C(C)(C)O)n1 + CC(C)CCN1c2nc(Nc3cc(F)c(O)c(F)c3)ncc2N(C)C(=O)C1C [BID1870] (first compound 0.02 µM, partner dose 0.2 µM) in the list: 150	234	40.4	76.2	256	40.6	229	83.1	397	76.2	168	122	85.9	101	68.8
